Values from PubChem BioAssay AID602196 (INSERM, 2012)
In all, the deposit lists about 23,000 reagents; shown is a random part of them. 455 of them (2%) were called active. 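Active includes both protection and sensitisation; some change values fall well beyond the stated -50 to +50 range.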 Not all columns of the deposit are shown. Not stated in the record: the amount of reagent.

- Aim: 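Genes whose knock-down alters cisplatin killing of lung cancer cells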
- Cells: human A549 lung cancer cells
- Reagents: siRNA pair against human genes
- Duration: 48 h transfection before cisplatin; time from cisplatin to read-out not stated
- Treatment: cisplatin at a dose killing half of control-siRNA cells; exact dose and duration not given
- Read-out: 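Shift in cisplatin death relative to control siRNA, from -50 (all cells die) to +50 (no cells die); siRNAs harmful on their own scored 0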
- Reading the numbers: two-siRNA summed score (-2 to +2): higher = both siRNAs protect from cisplatin killing; -2 means both sensitise
- Rule for the call: 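Each siRNA scores 0 if harmful alone by LDH or WST-1, otherwise +1 if it reduces and -1 if it increases cisplatin killing; a gene is active when both siRNAs agree (sum +2 or -2)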
- Meaning of the calls: active = both siRNAs shift cisplatin killing the same way; inactive = no consistent shift, or siRNA harmful alone

Silencing of MEDAG resulted in: two-siRNA summed score (-2 to +2) = 0; inactive. For ABCA13, the entry reads two-siRNA summed score (-2 to +2) = 1; inactive. With knock-down of LOC389242 the results were two-siRNA summed score (-2 to +2) = 0; inactive. With knock-down of TAF9, the record shows two-siRNA summed score (-2 to +2) = 1; inactive. For WDR17, the values are two-siRNA summed score (-2 to +2) = 1; inactive. With knock-down of LOC441576, the record shows two-siRNA summed score (-2 to +2) = 0; inactive.

After knock-down of KIF25 the results were two-siRNA summed score (-2 to +2) = 0; inactive. Against LOC339324, the values are two-siRNA summed score (-2 to +2) = 0; inactive. After knock-down of CTDSP1 the results were two-siRNA summed score (-2 to +2) = 1; inactive. For CLPTM1, the values are two-siRNA summed score (-2 to +2) = 1; inactive. DCLRE1C scored two-siRNA summed score (-2 to +2) = 0; inactive. FLJ37858 showed two-siRNA summed score (-2 to +2) = 0; inactive.

LOC387905 scored two-siRNA summed score (-2 to +2) = 0; inactive. Silencing of LOC388746 gave: two-siRNA summed score (-2 to +2) = 1; inactive. For TMEM40, the values are two-siRNA summed score (-2 to +2) = 0; inactive. After knock-down of ENGASE, the screen gave two-siRNA summed score (-2 to +2) = 0; inactive. For LOC441377 the deposit lists two-siRNA summed score (-2 to +2) = 0; inactive. TP53TG1 scored two-siRNA summed score (-2 to +2) = 2; active.

For CRH, the entry reads two-siRNA summed score (-2 to +2) = 1; inactive. After knock-down of MEP1B, the record shows two-siRNA summed score (-2 to +2) = 0; inactive. Knock-down of SERPINI2 came out at: two-siRNA summed score (-2 to +2) = 0; inactive. Silencing of LOC134111 resulted in: two-siRNA summed score (-2 to +2) = 0; inactive. With knock-down of MIA, the screen gave two-siRNA summed score (-2 to +2) = -1; inactive. LOC388731 showed two-siRNA summed score (-2 to +2) = 0; inactive.

With knock-down of FBXW10B, the record shows two-siRNA summed score (-2 to +2) = -1; inactive. LOC388205 showed two-siRNA summed score (-2 to +2) = 1; inactive. For ZBTB40 the deposit lists two-siRNA summed score (-2 to +2) = 1; inactive. For SRSF3, the values are two-siRNA summed score (-2 to +2) = 1; inactive. GPR75 gave two-siRNA summed score (-2 to +2) = -1; inactive. For GFAP the deposit lists two-siRNA summed score (-2 to +2) = 0; inactive.

YEATS2 gave two-siRNA summed score (-2 to +2) = -1; inactive. Depletion of IL21R gave: two-siRNA summed score (-2 to +2) = 0; inactive. Silencing of LOC389029 came out at: two-siRNA summed score (-2 to +2) = -1; inactive. For ITGB4, the values are two-siRNA summed score (-2 to +2) = 0; inactive. With knock-down of ACSF2 the results were two-siRNA summed score (-2 to +2) = 0; inactive. For GJB3, the values are two-siRNA summed score (-2 to +2) = 0; inactive.

Against RIC8B the deposit lists two-siRNA summed score (-2 to +2) = 0; inactive. RIOX1 gave two-siRNA summed score (-2 to +2) = 1; inactive. Knock-down of LOC440958 resulted in: two-siRNA summed score (-2 to +2) = 0; inactive. With knock-down of DNASE1, the screen gave two-siRNA summed score (-2 to +2) = 0; inactive.

Ordered by “two-siRNA summed score (-2 to +2)” (low to high): some entries from above.
DCLRE1C: two-siRNA summed score (-2 to +2) = 0; activity call = inactive
FLJ37858: two-siRNA summed score (-2 to +2) = 0; activity call = inactive
CTDSP1: two-siRNA summed score (-2 to +2) = 1; activity call = inactive
CLPTM1: two-siRNA summed score (-2 to +2) = 1; activity call = inactive
